In all, about 1,200 compounds went through this assay and about 110 (9.2%) were called active. Roughly 8% stayed inconclusive and do not appear here.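 Rule for the calls: active = pathway reporter half-maximal dose under half the control reporter's, or control reporter unaffected while pathway reporter is inhibited; inconclusive = either signal flat at 30 to 70% inhibition or poorly fitted; inactive = the rest.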 The entries are a selection whose mix differs from that of the whole data set. Results with a measured potency or affinity are listed apart.
Test: LMP1 TES1 pathway selectivity over dsRED control – imaging, HEK293T, dual-color eGFP/dsRED, cherry-picks, selectivity assay for LMP1 NF-kB inhibitor project, dose response (AID 588398);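 note: 0% = median of neutral control wells and -100% = median of MG132 positive control wells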
Conditions: HEK293T Tet-On dsRED counter-screen channel, 48 h; at 19.5 µM (top of the series)

Row | Structure (SMILES) | activity change, negative = inhibition
1 | CC(=NNC(=S)N1CC2CCC(CC2)C1)c1nccs1 | inactive: -99.8%
2 | O=c1[nH]c(CN2CC=C(c3ccccc3)CC2)nc2cc(C(F)(F)F)ccc12 | inactive: -1.87%
3 | Cc1nc2ccccc2n1C1CCN(Cc2nnnn2CCc2ccccc2)CC1 | inactive: -0.604%
4 | Cc1cc(C)n(-c2ccc(NN=C(C#N)C#N)cc2)n1 | inactive: -98.1%
5 | O=C(CCCc1ccc(N(CCCl)CCCl)cc1)NCc1ccccc1 | inactive: 174%
6 | O=C(N/N=C/c1c(O)n(C2CCCCC2)c(=S)[nH]c1=O)c1ccccc1O | inactive: 4.37%
7 | CCN(CC)CCCN=Cc1c(O)n(Cc2ccc(F)cc2)c(=O)[nH]c1=O | inactive: -12.8%
8 | O=C(NN=Cc1ccc(N(CCCl)CCCl)cc1)c1cccnc1 | inactive: -28.1%
9 | O=C(NN=Cc1ccc(N(CCCl)CCCl)cc1Cl)c1cccnc1 | inactive: -97.6%
10 | N#CC(C#N)=NNc1ccc(-n2ccc(C(F)(F)F)n2)cc1 | inactive: -85.3%
11 | CC1(CCCc2ccc(N(CCCl)CCCl)cc2)NC(=O)NC1=O (stereo unspecified) | inactive: 13.3%
12 | CC1(C(=O)O)CC12c1ccccc1-c1ccccc12 (stereo unspecified) | inactive: 11%
13 | N#Cc1ncc(N=Cc2ccc(N(CCCl)CCCl)cc2)s1 | inactive: -58.8%
14 | CCn1c(O)c(C=Nc2ccc(N3CCOCC3)c(Br)c2)c(=O)n(CC)c1=S | inactive: 10.6%
15 | COC(=O)C1=C(c2ccc3ccccc3c2)C[C@@H]2CC[C@H]1N2C(=O)N1CCC(O)CC1 | inactive: 16.3%
16 | CCN(CC)C(=O)c1ccc(NC(=O)Nc2ccccc2F)cc1 | inactive: 29.6%

2 compounds drawn at random from the list so far, as already listed:
Row | Structure (SMILES) | activity change, negative = inhibition
9 | O=C(NN=Cc1ccc(N(CCCl)CCCl)cc1Cl)c1cccnc1 | inactive: -97.6%
3 | Cc1nc2ccccc2n1C1CCN(Cc2nnnn2CCc2ccccc2)CC1 | inactive: -0.604%
